Assay results published in patent US7955808B2, “Bitter taste receptors” (Deutsches Institut für Ernährungsorschung, Stiftung des …, priority 2002, dated 2011).
At least one structure is not confirmed: it was looked up by name or label, or the drawing left a doubt. Some entries share one result that the patent states for a list of compounds.

Legend:
hTAS2R16 [1] = molecular target: T1, hTAS2R16 (Homo sapiens, UniProt Q9NYV7, R222H); experiment: FLIPR calcium assay, hTAS2R16-expressing HEK293/15 transfectants; assay type: cell-based
T1 construct: gene-specific primers that span the complete coding region of the individual hTAS2R genes; first 45 amino acids of rat somatostatin type 3 receptor (cell surface-targeting signal) (N); expressed in transfected cells; host or cells: HEK293/15 cells (HEK293 stably expressing Galpha15), transient transfection
T1 sequence (Q9NYV7 1-291 R222H): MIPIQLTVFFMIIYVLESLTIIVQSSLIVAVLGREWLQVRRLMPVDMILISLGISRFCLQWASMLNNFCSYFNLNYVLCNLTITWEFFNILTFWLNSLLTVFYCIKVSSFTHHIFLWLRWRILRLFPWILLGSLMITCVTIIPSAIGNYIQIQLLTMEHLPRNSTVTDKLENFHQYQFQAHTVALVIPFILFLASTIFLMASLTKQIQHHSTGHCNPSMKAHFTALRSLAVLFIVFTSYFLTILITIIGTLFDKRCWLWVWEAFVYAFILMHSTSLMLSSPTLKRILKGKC
Experimental: A fluorescence imaging plate reader (FLIPR, Molecular Devices) was used to functionally screen cell populations transiently transfected with expression vectors encoding the above-described 24 bitter receptors and to establish concentration-response curves for hTAS2R16 and hTASR10. […] For the FLIPR experiments the HEK293/15 cells were grown to 50% confluence. […] After 48 h the cells in each well were transfected using Lipofectamine 2000 and 24-30 h later were loaded with FIuo4AM (Molecular Probes). Thereafter they were stimulated with bitter compounds (SigmaAldrich, further purified by reversed-phase HPLC to >99% purity). Calcium signals were recorded simultaneously from each well at 1 Hz at 510 nm after excitation at 488 nm and the recordings were corrected for cell density. […] The calculations rest on at least four independent transfection experiments.
EC50 and threshold values obtained with hTAS2R16-expressing transfectants are shown in Table 1 below and the results are described in Example 4.

hTAS2R16 [2] = molecular target: T1, hTAS2R16; experiment: FLIPR assay, heterologous expression of hTAS2R16; assay type: cell-based
Description: Transient transfection of TAS2Rs into HEK-293T-Gα16gustducin44 cells.

human panelists = experiment: Human taste experiments: bitter thresholds and dose-response by sensory panel; assay type: in vivo; settings: compared with the tested beta-glucopyranosides
Experimental: 15 experienced panelists in a sensory panel room at 22-25° C. determined bitter thresholds on three different sessions using a triangle test with tap water as solvent, according to methodology set out in J. Agric. Food Chem., 49, 231-238 (2001), or Mailgaard M et al, “Sensory Evaluation Techniques” (CRC Press LLC, New York 1999). For dose-response relations, bitter tastant concentration series were presented to 10 trained panelists in random order. The panelists ranked the samples in increasing order of intensity and, for each concentration, evaluated bitterness intensity on a scale from 0 to 5 (ref. 24). The dose-response curves of three different sessions were averaged. The intensity values between individuals and separate sessions differed by not more than 0.5 units.

SMILES	Threshold Value FLIPR (hTAS2R16 [1]) [mM]	Threshold (hTAS2R16 [2]) [mM]	EC50 (hTAS2R16 [2]) [mM]	fold higher Threshold Concentrations (human panelists)
OC[C@H]1O[C@@H](Oc2ccc3ccccc3c2)[C@H](O)[C@@H](O)[C@@H]1O [Compound 6, naphthyl-beta-D-pyranoside]	0.4 ± 0.1	0.4 ± 0.1	–	–
COC1OC(CO)C(O)C(O)C1O [Compound 7, methyl-beta-D-lucopyranoside]	15 ± 6	15 ± 6	32 ± 11	–
OC[C@H]1O[C@@H](Oc2ccccc2)[C@H](O)[C@@H](O)[C@H]1O [Compound 10, phenyl-beta-D-galactopyranoside]	–	–	–	90- to 400 fold
OCC1OC(Oc2ccccc2)C(O)C(O)C1O [Compound 11, phenyl-alpha-D-glucopyranoside]	–	–	–	90- to 400 fold
